At least one structure is not confirmed: it was looked up by name or label, or the drawing left a doubt.
Test: Oxygen scavenger screening: dissolved O2 in effluent water (apparatus of FIG. 1)
Details: 250 ° F., feed pH 9.0-9.5
Experimental: The apparatus of FIG. 1 was utilized to evaluate the efficiency of various oxygen scavengers. Reference is made to FIG. 1. The feedstream was ambient temperature (22° C.) air-saturated deionized water. Air-saturation of the feedwater was maintained with a continuous purge with CO2 -free air. The pH of the feedwater was adjusted to within the range of 9.0-9.5 with reagent grade sodium hydroxide. All wetted parts were constructed from 316 stainless steel. Syringe infusion pumps were used for injection of scavenger and catalyst. A metering pump pressurized the flow to 85 psig. The first heating bath heated the water stream to about 214° F. in about 30 seconds. The water residence time in the second bath was 4.5 minutes, and the effluent temperature was 251° F. The water stream was cooled slightly below ambient temperature within a few seconds, the pressure was released, and the oxygen concentration of the effluent water was continuously monitored utilizing an Orbisphere oxygen probe at the exit sample point.
The data of Table 1 illustrate a remarkable reduction in dissolved O2 for the scavengers of this invention when utilized in conjunction with a catalyst in this temperature range.

NNC(=O)N1CCOCC1 [Carbazoyl morpholine, carbazoyl morpholine]
Dissolved O2 (Equivalence Scavenger:O2 1:1, catalyst none): 8000 ppb | Dissolved O2 (Equivalence Scavenger:O2 2:1, catalyst Co/Cu): < 100 ppb

Source: patent US5904857A, “4-alkyl and aryl semicarbazides as oxygen scavengers” (Nalco Chemical Company, priority 1997, dated 1999)
